These are yes or no findings as the source states them, for the method shown. In cells and extracts the contact can be indirect. Some binding calls cover weakened binding; strength is not graded here.
Legend:
[1] = biological target: Myc-tagged TAZ (UniProt Q9GZV5); experiment: co-IP; HEK-293T cells co-transfected with Flag-PSMA1 and Myc-TAZ (or deletion mutants); immunoprecipitation with anti-Flag and anti-Myc antibodies, immunoblot
[2] = biological target: transcriptional co-activator with PDZ-binding motif (TAZ), endogenous (human (endogenous in AGS and BGC-823)) (UniProt Q9GZV5); experiment: co-IP; reciprocal co-IP of endogenous proteins with anti-PSMA1 and anti-TAZ antibodies, IgG as control; AGS and BGC-823 cells, RIPA lysis buffer, protein A/G agarose, overnight at 4 °C, immunoblot

Protein sequences, listed by entry. Tags and fused reporters are not part of them.
UniProt Q9GZV5: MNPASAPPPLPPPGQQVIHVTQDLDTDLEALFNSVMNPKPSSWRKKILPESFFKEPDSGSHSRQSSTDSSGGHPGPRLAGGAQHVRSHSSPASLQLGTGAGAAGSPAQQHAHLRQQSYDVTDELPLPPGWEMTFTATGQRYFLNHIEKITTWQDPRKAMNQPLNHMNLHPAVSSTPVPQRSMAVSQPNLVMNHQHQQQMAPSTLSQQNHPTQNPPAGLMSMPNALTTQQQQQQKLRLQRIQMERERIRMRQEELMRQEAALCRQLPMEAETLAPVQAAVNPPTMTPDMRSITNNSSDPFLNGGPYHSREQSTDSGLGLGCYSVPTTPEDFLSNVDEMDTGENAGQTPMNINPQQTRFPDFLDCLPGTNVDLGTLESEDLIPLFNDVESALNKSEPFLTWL
UniProt P25786: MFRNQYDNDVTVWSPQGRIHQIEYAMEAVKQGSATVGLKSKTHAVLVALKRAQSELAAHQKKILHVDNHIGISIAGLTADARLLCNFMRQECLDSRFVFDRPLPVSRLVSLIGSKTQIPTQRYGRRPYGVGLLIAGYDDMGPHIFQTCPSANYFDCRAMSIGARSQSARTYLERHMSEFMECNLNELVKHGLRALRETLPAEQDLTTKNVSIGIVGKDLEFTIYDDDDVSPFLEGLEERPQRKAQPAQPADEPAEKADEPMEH

Substance	binding [1]	binding [2]
Flag-tagged PSMA1 (from UniProt P25786 1-263)	binds	–
proteasome subunit alpha type 1 (PSMA1), endogenous (from UniProt P25786 1-263)	–	binds

Reference: PMC9691733
